Data taken from ChEMBL document CHEMBL3988442, “University of Dundee, Small-Polar-MMV Screening Library” (2021).

Sequences of proteins named here, by UniProt entry; tags and fusion partners are left off.
UniProt P9WFT3, whole entry: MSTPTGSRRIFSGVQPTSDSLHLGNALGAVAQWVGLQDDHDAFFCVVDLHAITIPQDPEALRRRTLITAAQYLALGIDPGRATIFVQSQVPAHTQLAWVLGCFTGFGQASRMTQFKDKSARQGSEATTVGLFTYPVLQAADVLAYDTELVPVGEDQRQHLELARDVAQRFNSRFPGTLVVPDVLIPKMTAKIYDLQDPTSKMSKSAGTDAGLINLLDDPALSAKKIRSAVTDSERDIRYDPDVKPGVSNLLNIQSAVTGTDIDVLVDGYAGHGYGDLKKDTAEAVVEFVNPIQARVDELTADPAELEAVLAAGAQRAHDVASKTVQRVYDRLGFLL

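Enzyme assay of tryptophanyl-tRNA synthetase; the read-out is not stated. Target: Tryptophan-tRNA ligase, Mycobacterium tuberculosis (UniProt P9WFT3). Compounds at 10 µM. Direction is not recorded; retested compounds ran higher, which suggests that high means inhibition. Size under these conditions: about 65,000 compounds, about 64 of them at 50% or above in at least one test.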

Results are given as percent effect. How 0% and 100% were set is not recorded. Most values in the screen are low, and negative values occur. The compounds are a random part of those screened.

structure | Percent Effect
CC1CCN(c2ccc(=O)n(CC(=O)NCCc3ccccc3)n2)CC1 | 2.832
O=C(Nc1ccc(OC(F)F)cc1)N1CCC(c2nnc[nH]2)CC1 | -2.418
Cc1ccc(CN2C[C@@H](C(=O)O)[C@H](c3ccccn3)C2)o1 | 3.964
CN1CCCC(Cc2nccnc2Cl)CC1 (stereo not given) | -7.822
Cc1cc(C)n(CC2CCCCN2CC(=O)Nc2nncs2)n1 (stereo not given) | 0.8881
CSCCCN1C(=O)CC[C@H]2CN(Cc3ncc[nH]3)CC[C@H]21 | -5.217
CN1CCN(Cc2cccnc2)C2(CCN(c3ncccn3)C2)C1=O (stereo not given) | -2.329
CCn1cc(Cl)c(C(=O)Nc2ccc3c(c2)C(C)(C)C(=O)N3C)n1 | 0.5424
CC(C)n1cnnc1CN(C)C(=O)c1ccccc1N1CCOCC1 | -1.424
Cc1ccc(C(=O)NCCNCC2CNc3ccnn3C2)cc1 (stereo not given) | -0.97
CN(Cc1ccsc1)C(=O)CN1CCOC(Cn2cccn2)C1 (stereo not given) | -1.981
Cc1ncccc1NC(=O)[C@@H]1CC[C@@H]2[C@@H](CCN2Cc2cnn(C)c2)O1 | -0.4016
Cc1noc(C)c1CN1C(=O)[C@H]2CC[C@@H]1CN(Cc1cccc(O)c1)C2 | 0.831
CCN(C)Cc1cccc(CNC(=O)CSCc2ccncc2)c1 | 1.363
COc1ccc(N2CCN(C(=O)CCn3nccc3C)C(C)C2)cc1 (stereo not given) | 2.387
COc1ccc(C(=O)N2CCC(Oc3ccc(C)cc3)(C(=O)O)CC2)o1 | 5.023
COCCN1C(=O)C2(CCC(C(=O)Nc3ccc(C)cc3)CC2)N=C1C (stereo not given) | 15.16
CSc1ccccc1C(=O)N1CCOC(CCN(C)C)C1 (stereo not given) | -2.304
CN(C)[C@@H]1CCN(c2ncccn2)[C@H]1Cc1ccccc1 | 1.574
Cc1ccnc(NC(=O)c2ccc(-n3ncc(C#N)c3N)cc2)c1 | -0.8023
Cc1cc(C(=O)N2CCc3c(CN(C)C(C)C)n[nH]c3C2)[nH]n1 | -0.8834
Cc1ccc(N2Cc3nc(=O)[nH]n3C2=O)cc1 | 8.234
CCc1ccc(C(=O)NCc2ccnc(C)n2)cc1 | -3.916
Cc1oc(-c2cccc(F)c2)nc1CN1CCOCS1(=O)=O | -4.941
CCN(CCc1nccs1)C(=O)c1sccc1C | 2.642
O=S(=O)(NCc1ccc(S(=O)(=O)N2CCCC2)s1)c1cc(Cl)cc(Cl)c1 | -2.031
CSCC(C)(O)CNC(=O)c1ccc(F)cc1Br (stereo not given) | 1.939
Cc1ccc2nc(C3CCN(CC4CC4)CC3)nn2c1 | -4.655
CN(Cc1ccco1)[C@@H]1CN(C(=O)c2ccnnc2)[C@@H]2CCCO[C@H]12 | 3.536
CCOC(=O)N1CCN(c2nc(NC3CC3)c3ccccc3n2)CC1 | 1.783
CC(C)CC(C)NCc1cccnc1N1CCN(c2ccccn2)CC1 (stereo not given) | 0.859
CC(=O)c1c(F)cccc1N1CCC(Cc2cccnc2)CC1 | 5.674
CCn1ccc(NC(=O)CCc2c(C)noc2C)n1 | 0.288
O=C1CC(N2CCN(c3ccccc3O)CC2)C(=O)N1Cc1cccs1 (stereo not given) | -2.855
CN(CCNC(=O)c1scnc1Cl)c1ccccc1 | 0.2534
COc1ccc(C(=O)C2CCCN(Cc3ccncc3)C2)c(OC)c1 (stereo not given) | 2.59
Cc1nc(CN2CCC3(CC2)CC(=O)N(C)c2ccccc23)cs1 | 1.26
Cc1nnc2n1CCN(C(=O)COCCOc1ccccc1)C2 | -3.996
CCC1(CC)CC(=O)N(CC(O)c2ccc(F)cc2)C1=O (stereo not given) | -4.205
OCCc1ccccc1-n1ccnc1-c1cn(C2CCNCC2)nn1 | -1.351
COc1cccc2cc(CNCc3ccnc(N4CCCCC4)c3)oc12 | -3.352
O[C@H]1CCN(Cc2ccoc2)[C@H]1Cc1cccnc1 | 15.42
CCc1cc(N2CCSCC2)n2nc(C)c(C)c2n1 | -0.7105
N#CC1(NC(=O)c2ccc(F)cc2OC(F)F)CCOCC1 | -1.943
CC(NC(=O)NC1CCN(Cc2ccccc2)CC1)c1nncn1C (stereo not given) | 1.371
CCc1c(C)nc2n(c1=O)CC(C(=O)Nc1ccccc1C)CS2 (stereo not given) | 6.785
CCn1nc(C(C)C)cc1C(=O)NCc1nc2ccc(OC)cc2[nH]1 | 6.282
O=C(CS(=O)(=O)Cc1ccc(Br)cc1F)Nc1cn[nH]c1 | 3.659
O=C(CCc1nccs1)N1CCN(c2nccs2)CC1 | -2.382
CC(C)NC(=O)CCNC(=O)c1cnc(Cc2ccc(F)cc2)s1 | 2.245
COCc1cn(C2CCN(C(=O)c3ccc(F)c(C)c3)CC2)nn1 | 3.931
Cc1c[nH]nc1C1CCN(C(=O)Cn2cccn2)C1 (stereo not given) | -4.392
Cc1ccc2c(c1)c(C)cc(=O)n2CCC(=O)O | -4.583

Some entries from above, unchanged:

- Cc1cc(C)n(CC2CCCCN2CC(=O)Nc2nncs2)n1 (stereo not given) | 0.8881%
- CCN(C)Cc1cccc(CNC(=O)CSCc2ccncc2)c1 | 1.363%
- O=C(CS(=O)(=O)Cc1ccc(Br)cc1F)Nc1cn[nH]c1 | 3.659%
- CCc1cc(N2CCSCC2)n2nc(C)c(C)c2n1 | -0.7105%